Results from the supplement of paper PMC5949888.
Most values lie at the floor of the assay. Slopes are relative: functional sequences can read slightly below zero.

system: Saccharomyces cerevisiae PS128 hsf1 delta, HSF1(1-493) fusion; assay: growth estimate (transactivation domain function in HSF1 fusion, heat-shock survival) (a.u. (slope of normalised read count over time)); higher = stronger growth at 37°C, i.e. more transactivation activity; conditions: library: random library
Protocol: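 Random 60-nt DNA library encoding peptides of up to 20 aa, fused to the C-terminus of yeast HSF1 residues 1-493 (C-terminal TAD deleted) and expressed from the native HSF1 promoter on a CEN plasmid in hsf1-deleted S. cerevisiae PS128. Cells were selected at 37°C on -trp 5-FOA plates for 0, 2, 4, 6 and 8 days and amplicons were sequenced. Growth estimate is the slope of a robust linear fit of total-sum-normalised read counts (normalised to the first time point) over time, using at least 2 replicates. Sequences are classed functional (TAD activity) above a threshold of -0.13, set from stop-codon control sequences.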

| Substance | growth estimate |
| --- | --- |
| EVRIVEDDDCE | < -0.25 |
| EVRTQFWMLSSVAFRTVRLT | < -0.25 |
| EVSIRCKMTARLSG | < -0.25 |
| EVSPVVVH | < -0.25 |
| EVTIQSLSWNRWMSRGKIGR | < -0.25 |
| EVTLDRPVREGPVAYSKSR | < -0.25 |
| EVTVT | < -0.25 |
| EVVHVTYAVSAGGGT | < -0.25 |
| EVVNRCIERCWFRLGAYGGT | < -0.25 |
| EVVVWGRPINLPTL | < -0.25 |
| EWAWYHLVLSGCRFTYASTS | < -0.25 |
| EWDATISRRGSKGDSSASTC | < -0.25 |
| EWDQQNPMELKGWPVDTRPR | < -0.25 |
| EWPS | < -0.25 |
| EWPVLGRAQ | < -0.25 |
| EWQFCPFV | -0.0769 |
| EWSAWYTRNLPTEENAVLWH | < -0.25 |
| EWTDYYMLPRW | < -0.25 |
| EYEDYLPVAEVGMSCEVCSS | < -0.25 |
| EYGIADRT | < -0.25 |
| EYGVIRDVIWAGFTKHCYNR | < -0.25 |
| EYIRSAPAFR | < -0.25 |
| EYKYY | < -0.25 |
| EYNFQA | < -0.25 |

| Substance | growth estimate |
| --- | --- |
| EYQRKVRAGYREALVVETSP | < -0.25 |
| EYSVRRPG | -0.145 |
| EYTTCRAVCRDET | < -0.25 |
| FAAIVNNKSVRADFRGQPRV | < -0.25 |
| FACGILLSD | < -0.25 |
| FADPSCRNIRSQ | < -0.25 |
| FADTKRSRVLMVGCAHRPLA | < -0.25 |
| FAEWLFSQKRSPGRALWETD | 30.3 |
| FAHLLRRYRSSLLLLVQLTA | < -0.25 |
| FAILLDPAMYYSACSMHALV | < -0.25 |
| FALVESSTAG | < -0.25 |
| FAQSSLCMTL | < -0.25 |
| FARAPKNYLGWFKGTLPKDA | < -0.25 |
| FARAWHDHSGQEIRFWSIFY | < -0.25 |
| FARTRLSKTLVQQVAGDTPT | < -0.25 |
| FARVVGAAQTR | < -0.25 |
| FATLRTVRGGTGVIFQSSVR | < -0.253 |
| FAVIPFGCLGVELSLIHARA | < -0.25 |
| FAVPARNRKNSWHFLMNGCV | < -0.25 |
| FCEHGQIY | < -0.25 |
| FCGRPRSVRLPGDGFEEGGC | < -0.25 |
| FCL | < -0.25 |
| FCMRSRRGRGTRAK | < -0.25 |
| FCPTGVGACVPCSEKECQHG | < -0.25 |

| Substance | growth estimate |
| --- | --- |
| FCR | < -0.25 |
| FCREVLKQVGGAGLTGDREP | < -0.25 |
| FCRISESGRLATTSSWLVRA | < -0.25 |
| FCRPPVSALRRLMLRGWPID | < -0.25 |
| FCTRMG | < -0.25 |
| FCTVSV | < -0.25 |
| FCWDRSGSAARTQPGMDQIR | < -0.25 |
| FDDAGEVK | < -0.25 |
| FDEKYIRVCTSRDYLLARPS | < -0.25 |
| FDFTICVSHQLWEIMPMCRT | < -0.25 |
| FDLNQRLSKFCQNEAR | < -0.25 |
| FDNATFRFWKSCQLARSSLC | < -0.25 |
| FDQLTHSSRQR | < -0.25 |
| FDRKFIVSLIWVILQGTSNL | < -0.25 |
| FDSGVPEKLCIGDRARRKFG | < -0.25 |
| FDSTAAEESQGSISVDRSAV | < -0.25 |
| FDYMRSELQN | < -0.25 |
| FEFSDGQ | < -0.25 |
| FEIERSARVIPVVWADATHN | < -0.25 |
| FEL | < -0.25 |
| FELGDAAQLIPT | < -0.25 |
| FELGGGCFDARVPY | < -0.25 |
| FENTVACHPGVRRIVKTSEL | < -0.25 |
| FEPYYHVSRLIAWLRTPASG | < -0.25 |

| Substance | growth estimate |
| --- | --- |
| FESDYSEYCESLCSKPAITY | < -0.25 |
| FESGDVQD | < -0.25 |
| FEVMSTFVAETRRHIVSL | < -0.25 |
| FEVVNG | < -0.25 |
| FEWPGISVGPSGLLFLGEHA | < -0.25 |
| FFAPQNGFMLLQIELACLRL | < -0.25 |
| FFGFVSHRLLPPSVSNHRLT | < -0.25 |
| FFK | < -0.25 |
| FFLVLADETG | < -0.25 |
| FFRL | -0.204 |
| FFTRCPG | < -0.25 |
| FFYASQAFHAGLASALVLCG | < -0.25 |
| FGA | < -0.25 |
| FGAVVTPLARVRGFRHQRRL | < -0.25 |
| FGCGPWQYFLGNRDALSKFG | < -0.25 |
| FGDR | < -0.25 |
| FGDSQPRGLG | < -0.25 |
| FGDVSGHILQLLL | < -0.25 |
| FGFT | < -0.25 |
| FGGARVHARTKGLSTAEVKP | < -0.25 |
| FGGIPCVGHDAIREARGVL | < -0.25 |
| FGGLHMRTCFRNFFLPFSVG | < -0.25 |
| FGKWYGLNIRLSLRDKLHLP | < -0.25 |
| FGLLGPVRSQVTTDAGHRSI | < -0.25 |

| Substance | growth estimate |
| --- | --- |
| FGLLGRLNEIIRTHSAVGDQ | -0.248 |
| FGLSGPFRLEVIYAKFSMEL | < -0.25 |
| FGLVWCPGKVTSKERVRLFM | < -0.25 |
| FGMRRRIGHRMTRSRKRRII | < -0.25 |
| FGMTRYLFCDEHKGQMRERA | < -0.25 |
| FGNMTSGQGP | < -0.25 |
| FGNTCALLYYL | < -0.25 |
| FGPLLLSPSLFLGEIALISL | < -0.25 |
| FGQQSKSKRVGC | < -0.25 |
| FGRNLVGATSHQ | < -0.25 |
| FGSARCSCLWQARDLCTGPG | < -0.25 |
| FGSGCDRLRYHLKR | < -0.25 |
| FGSGCPQFTSRRYAPPVHGC | < -0.25 |
| FGSRFSRQEDFIRWCRAVHS | < -0.25 |
| FGSSGDQ | < -0.25 |
| FGTKPSHTE | < -0.25 |
| FGTYDMRRVVDNAYESLV | < -0.25 |
| FGVCP | < -0.25 |
| FGVLLLFELEVRERRHYRGP | < -0.25 |
| FGVVELGSRGVSRISWLHGI | < -0.25 |
| FHA | < -0.25 |
| FHLARVGVCPSWGRESSL | < -0.25 |
| FHLPGKGTEDTFVPAVVGSG | < -0.25 |
| FHLTARLREVQFSSVPEVL | < -0.25 |

Some of the entries so far, with tabs:
Substance	growth estimate
FEIERSARVIPVVWADATHN	< -0.25
FEL	< -0.25
FELGDAAQLIPT	< -0.25
FELGGGCFDARVPY	< -0.25
FENTVACHPGVRRIVKTSEL	< -0.25
FEPYYHVSRLIAWLRTPASG	< -0.25
FESDYSEYCESLCSKPAITY	< -0.25
FESGDVQD	< -0.25
FEVMSTFVAETRRHIVSL	< -0.25
FEVVNG	< -0.25
FEWPGISVGPSGLLFLGEHA	< -0.25
FFAPQNGFMLLQIELACLRL	< -0.25
FFGFVSHRLLPPSVSNHRLT	< -0.25
FFK	< -0.25
FFLVLADETG	< -0.25
FFRL	-0.204
FFTRCPG	< -0.25
FFYASQAFHAGLASALVLCG	< -0.25
FGA	< -0.25
FGAVVTPLARVRGFRHQRRL	< -0.25
FGCGPWQYFLGNRDALSKFG	< -0.25
FGDSQPRGLG	< -0.25
FGDVSGHILQLLL	< -0.25
FGFT	< -0.25
FGGARVHARTKGLSTAEVKP	< -0.25
FGGIPCVGHDAIREARGVL	< -0.25
FGKWYGLNIRLSLRDKLHLP	< -0.25
FGLLGPVRSQVTTDAGHRSI	< -0.25
FGLLGRLNEIIRTHSAVGDQ	-0.248
FGLSGPFRLEVIYAKFSMEL	< -0.25
FGLVWCPGKVTSKERVRLFM	< -0.25
FGMRRRIGHRMTRSRKRRII	< -0.25
FGMTRYLFCDEHKGQMRERA	< -0.25
FGNMTSGQGP	< -0.25
FGNTCALLYYL	< -0.25
FGPLLLSPSLFLGEIALISL	< -0.25
FGRNLVGATSHQ	< -0.25
FGSARCSCLWQARDLCTGPG	< -0.25
FGSGCDRLRYHLKR	< -0.25
FGSGCPQFTSRRYAPPVHGC	< -0.25
FGSRFSRQEDFIRWCRAVHS	< -0.25
FGSSGDQ	< -0.25
FGTKPSHTE	< -0.25
FGTYDMRRVVDNAYESLV	< -0.25
FGVCP	< -0.25
FGVLLLFELEVRERRHYRGP	< -0.25
FGVVELGSRGVSRISWLHGI	< -0.25
FHA	< -0.25
FHLARVGVCPSWGRESSL	< -0.25
FHLPGKGTEDTFVPAVVGSG	< -0.25
FHLTARLREVQFSSVPEVL	< -0.25

Next part

| Substance | growth estimate |
| --- | --- |
| FHRCGPHTARWKCEIRVYST | < -0.25 |
| FHSSQVGKRRFALDRLREGT | < -0.25 |
| FHSTTPGLAAPLKDEADYMV | < -0.25 |
| FHVYGN | < -0.25 |
| FIAGIMPCTTRGRCRFTYAL | < -0.25 |
| FIESYRHTWELCSVHL | -0.231 |
| FIETRSDVWRHTSMKLLT | < -0.25 |
| FIGDEVK | < -0.25 |
| FIGILVIASIGWARGRTQVA | < -0.25 |
| FIGRKSRV | < -0.25 |
| FIGW | < -0.25 |
| FILMLRGW | < -0.25 |
| FIPRSSQAAAGDIPAMNSSD | < -0.25 |
| FIQP | < -0.25 |
| FIRTAA | < -0.25 |
| FISCGPRVNKHRNGRRPPFG | < -0.25 |
| FISQFR | < -0.25 |
| FITFQSKVRCDVWFEIRGYW | < -0.25 |
| FITLPLPAEHGG | < -0.25 |
| FITYVQSLCLRTTMNDGNET | < -0.25 |
| FIV | < -0.25 |
| FIVLV | < -0.25 |
| FKERDSDVTTHAIPLRGDPV | < -0.25 |
| FKI | < -0.25 |

| Substance | growth estimate |
| --- | --- |
| FKLSLWINMAYRVQRFHMRS | -0.245 |
| FKRLSLG | < -0.25 |
| FKRLVLRRSRVGGRQ | < -0.25 |
| FLADTRTP | < -0.25 |
| FLAPT | < -0.25 |
| FLASLYNPFVAVYHPNGNPG | < -0.25 |
| FLCLHALHLYGCGTLIAYRS | < -0.25 |
| FLCLYEHDSYIGPVDSGQGS | < -0.25 |
| FLEFFSLYVGNEIR | < -0.25 |
| FLEPSSDVNTSSGSAT | < -0.25 |
| FLGLLLGSLACGSL | < -0.25 |
| FLGTNIRVLVAHHLTHPRNR | < -0.25 |
| FLKGCLPFVHTRGRIRISAS | < -0.25 |
| FLKLLGIKRSFL | < -0.25 |
| FLL | < -0.25 |
| FLLDFYTRYHTASEERGSVD | -0.249 |
| FLLGDQARTHMGLIRS | < -0.25 |
| FLMRG | < -0.25 |
| FLPPGFPEGSQGTAAKETCY | < -0.25 |
| FLPRQQ | < -0.25 |
| FLQPCERAL | < -0.25 |
| FLRLCGKIVHPLWKGSIQGQ | < -0.25 |
| FLSPPRG | < -0.25 |
| FLTRSRK | -0.246 |

| Substance | growth estimate |
| --- | --- |
| FLVFKVTLECIYHYSVFHLE | < -0.25 |
| FLVPWGSSQVGVQSAIAQVG | < -0.25 |
| FLVYRVRKKDRRSLLH | < -0.25 |
| FLWGRPRGRLAWGNIYPIPA | < -0.25 |
| FLYCGFSAQGLTTRFIQLQQ | < -0.25 |
| FLYDSEITNGTCMYRWV | < -0.25 |
| FLYLASHRASAARTCHLLCQ | < -0.25 |
| FMIPNSNSGLTRFT | < -0.25 |
| FMPPNSKI | < -0.25 |
| FMRKVKIRYRGRYRHRVPDV | < -0.25 |
| FMSSARTSGSEQWIQATRVR | < -0.25 |
| FMSVRL | < -0.25 |
| FMVSGKGPRESGPARLGAIS | < -0.25 |
| FNAATIGDGLQKELPRGMVA | < -0.25 |
| FNASGNRLTARAMIVVLRVH | < -0.25 |
| FNCQGTVGLC | < -0.253 |
| FNDT | < -0.25 |
| FNFQIVYARG | < -0.25 |
| FNG | < -0.25 |
| FNGEGSDCFGVGFNK | < -0.25 |
| FNGL | < -0.25 |
| FNGML | < -0.25 |
| FNGPCGKGGVRYGKSDRCID | < -0.25 |
| FNIDSRNHKTSPSMYSLRVI | < -0.25 |

A second format for some results above:
EWQFCPFV
  growth estimate: -0.0769
FADPSCRNIRSQ
  growth estimate: < -0.25
FLKGCLPFVHTRGRIRISAS
  growth estimate: < -0.25
